Data: the supplement of paper PMC10849652
The other results are listed elsewhere or left out.

Protein sequences, listed by entry. Tags and fused reporters are not part of them. Lines headed by an entry give the natural chain unless they say otherwise; changes in a name come on top.
UniProt Q99757: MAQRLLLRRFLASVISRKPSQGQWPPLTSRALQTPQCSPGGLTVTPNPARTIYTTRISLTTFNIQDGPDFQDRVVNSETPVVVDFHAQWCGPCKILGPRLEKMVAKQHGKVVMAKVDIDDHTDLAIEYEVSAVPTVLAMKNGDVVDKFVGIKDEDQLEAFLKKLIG
UniProt Q3B726, whole entry, looked up: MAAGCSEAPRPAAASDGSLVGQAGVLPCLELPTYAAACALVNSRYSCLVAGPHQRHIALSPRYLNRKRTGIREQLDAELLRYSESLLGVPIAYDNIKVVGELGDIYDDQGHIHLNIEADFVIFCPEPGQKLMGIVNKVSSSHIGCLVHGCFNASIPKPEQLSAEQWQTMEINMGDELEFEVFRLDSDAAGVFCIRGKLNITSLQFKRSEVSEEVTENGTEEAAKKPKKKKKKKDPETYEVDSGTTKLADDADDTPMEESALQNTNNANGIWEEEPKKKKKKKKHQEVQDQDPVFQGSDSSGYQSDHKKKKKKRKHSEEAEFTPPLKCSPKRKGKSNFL
UniProt P68036, whole entry, looked up: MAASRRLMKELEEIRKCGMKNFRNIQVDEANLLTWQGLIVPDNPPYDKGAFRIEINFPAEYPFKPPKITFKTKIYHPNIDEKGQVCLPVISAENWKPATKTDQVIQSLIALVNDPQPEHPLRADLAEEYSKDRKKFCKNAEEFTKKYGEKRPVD
UniProt P83876: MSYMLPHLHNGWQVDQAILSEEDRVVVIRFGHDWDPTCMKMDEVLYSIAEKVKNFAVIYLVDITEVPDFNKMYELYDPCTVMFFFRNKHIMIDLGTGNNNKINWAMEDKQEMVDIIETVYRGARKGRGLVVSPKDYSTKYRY
UniProt Q16881, whole entry, looked up: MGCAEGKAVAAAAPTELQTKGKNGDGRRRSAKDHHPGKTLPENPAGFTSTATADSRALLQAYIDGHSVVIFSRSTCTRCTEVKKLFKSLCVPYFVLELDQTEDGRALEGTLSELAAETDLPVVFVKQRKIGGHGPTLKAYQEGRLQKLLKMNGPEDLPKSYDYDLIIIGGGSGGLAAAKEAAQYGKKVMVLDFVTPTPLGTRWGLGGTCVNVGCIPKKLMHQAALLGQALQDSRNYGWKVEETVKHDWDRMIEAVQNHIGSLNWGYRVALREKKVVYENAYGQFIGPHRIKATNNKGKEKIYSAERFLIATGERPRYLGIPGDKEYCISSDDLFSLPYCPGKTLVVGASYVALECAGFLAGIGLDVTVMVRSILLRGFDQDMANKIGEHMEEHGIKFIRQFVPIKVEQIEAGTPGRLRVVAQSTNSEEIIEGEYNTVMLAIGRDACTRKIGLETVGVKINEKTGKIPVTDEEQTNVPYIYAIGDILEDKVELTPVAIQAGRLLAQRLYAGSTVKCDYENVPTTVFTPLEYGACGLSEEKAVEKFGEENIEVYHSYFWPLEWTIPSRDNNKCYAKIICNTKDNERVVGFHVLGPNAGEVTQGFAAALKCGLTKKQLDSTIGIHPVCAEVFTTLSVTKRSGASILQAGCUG
UniProt P23258, whole entry, looked up: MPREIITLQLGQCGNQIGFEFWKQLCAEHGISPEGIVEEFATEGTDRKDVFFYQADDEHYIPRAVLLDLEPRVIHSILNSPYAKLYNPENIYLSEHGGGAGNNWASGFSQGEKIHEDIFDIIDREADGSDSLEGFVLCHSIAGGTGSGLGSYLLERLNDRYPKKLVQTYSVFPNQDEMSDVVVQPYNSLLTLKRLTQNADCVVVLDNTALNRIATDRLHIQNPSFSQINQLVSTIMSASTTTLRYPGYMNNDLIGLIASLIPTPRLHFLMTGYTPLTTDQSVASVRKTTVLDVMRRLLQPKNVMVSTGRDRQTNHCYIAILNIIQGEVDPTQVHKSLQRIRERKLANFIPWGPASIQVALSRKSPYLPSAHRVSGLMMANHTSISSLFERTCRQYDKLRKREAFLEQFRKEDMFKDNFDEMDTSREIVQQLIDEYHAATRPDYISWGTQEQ
UniProt P15374: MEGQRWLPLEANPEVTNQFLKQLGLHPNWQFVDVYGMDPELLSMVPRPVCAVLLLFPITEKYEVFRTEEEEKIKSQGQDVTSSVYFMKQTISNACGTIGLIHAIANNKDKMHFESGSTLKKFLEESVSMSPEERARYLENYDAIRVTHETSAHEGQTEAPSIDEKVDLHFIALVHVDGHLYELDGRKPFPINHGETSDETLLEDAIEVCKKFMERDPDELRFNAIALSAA
UniProt P63279, whole entry, looked up: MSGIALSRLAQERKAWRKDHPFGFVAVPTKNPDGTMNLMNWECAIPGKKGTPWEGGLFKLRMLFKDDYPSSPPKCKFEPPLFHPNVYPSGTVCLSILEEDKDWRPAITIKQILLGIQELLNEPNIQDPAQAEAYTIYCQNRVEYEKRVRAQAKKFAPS
UniProt P40222: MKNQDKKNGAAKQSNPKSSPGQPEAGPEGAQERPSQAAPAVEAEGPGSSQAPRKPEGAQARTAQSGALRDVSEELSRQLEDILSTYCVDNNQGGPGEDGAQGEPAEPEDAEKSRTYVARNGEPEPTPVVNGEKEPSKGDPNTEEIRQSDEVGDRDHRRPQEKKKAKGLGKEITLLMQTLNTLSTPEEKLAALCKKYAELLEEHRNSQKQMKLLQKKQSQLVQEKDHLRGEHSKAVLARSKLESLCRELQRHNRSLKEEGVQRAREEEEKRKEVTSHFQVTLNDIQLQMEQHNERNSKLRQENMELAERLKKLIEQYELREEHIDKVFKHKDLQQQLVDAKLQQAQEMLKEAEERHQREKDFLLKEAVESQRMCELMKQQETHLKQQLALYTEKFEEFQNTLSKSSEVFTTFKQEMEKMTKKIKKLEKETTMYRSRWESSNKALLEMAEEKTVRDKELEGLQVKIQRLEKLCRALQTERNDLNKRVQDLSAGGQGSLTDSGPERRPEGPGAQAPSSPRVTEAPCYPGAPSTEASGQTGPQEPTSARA
UniProt Q8IWV8: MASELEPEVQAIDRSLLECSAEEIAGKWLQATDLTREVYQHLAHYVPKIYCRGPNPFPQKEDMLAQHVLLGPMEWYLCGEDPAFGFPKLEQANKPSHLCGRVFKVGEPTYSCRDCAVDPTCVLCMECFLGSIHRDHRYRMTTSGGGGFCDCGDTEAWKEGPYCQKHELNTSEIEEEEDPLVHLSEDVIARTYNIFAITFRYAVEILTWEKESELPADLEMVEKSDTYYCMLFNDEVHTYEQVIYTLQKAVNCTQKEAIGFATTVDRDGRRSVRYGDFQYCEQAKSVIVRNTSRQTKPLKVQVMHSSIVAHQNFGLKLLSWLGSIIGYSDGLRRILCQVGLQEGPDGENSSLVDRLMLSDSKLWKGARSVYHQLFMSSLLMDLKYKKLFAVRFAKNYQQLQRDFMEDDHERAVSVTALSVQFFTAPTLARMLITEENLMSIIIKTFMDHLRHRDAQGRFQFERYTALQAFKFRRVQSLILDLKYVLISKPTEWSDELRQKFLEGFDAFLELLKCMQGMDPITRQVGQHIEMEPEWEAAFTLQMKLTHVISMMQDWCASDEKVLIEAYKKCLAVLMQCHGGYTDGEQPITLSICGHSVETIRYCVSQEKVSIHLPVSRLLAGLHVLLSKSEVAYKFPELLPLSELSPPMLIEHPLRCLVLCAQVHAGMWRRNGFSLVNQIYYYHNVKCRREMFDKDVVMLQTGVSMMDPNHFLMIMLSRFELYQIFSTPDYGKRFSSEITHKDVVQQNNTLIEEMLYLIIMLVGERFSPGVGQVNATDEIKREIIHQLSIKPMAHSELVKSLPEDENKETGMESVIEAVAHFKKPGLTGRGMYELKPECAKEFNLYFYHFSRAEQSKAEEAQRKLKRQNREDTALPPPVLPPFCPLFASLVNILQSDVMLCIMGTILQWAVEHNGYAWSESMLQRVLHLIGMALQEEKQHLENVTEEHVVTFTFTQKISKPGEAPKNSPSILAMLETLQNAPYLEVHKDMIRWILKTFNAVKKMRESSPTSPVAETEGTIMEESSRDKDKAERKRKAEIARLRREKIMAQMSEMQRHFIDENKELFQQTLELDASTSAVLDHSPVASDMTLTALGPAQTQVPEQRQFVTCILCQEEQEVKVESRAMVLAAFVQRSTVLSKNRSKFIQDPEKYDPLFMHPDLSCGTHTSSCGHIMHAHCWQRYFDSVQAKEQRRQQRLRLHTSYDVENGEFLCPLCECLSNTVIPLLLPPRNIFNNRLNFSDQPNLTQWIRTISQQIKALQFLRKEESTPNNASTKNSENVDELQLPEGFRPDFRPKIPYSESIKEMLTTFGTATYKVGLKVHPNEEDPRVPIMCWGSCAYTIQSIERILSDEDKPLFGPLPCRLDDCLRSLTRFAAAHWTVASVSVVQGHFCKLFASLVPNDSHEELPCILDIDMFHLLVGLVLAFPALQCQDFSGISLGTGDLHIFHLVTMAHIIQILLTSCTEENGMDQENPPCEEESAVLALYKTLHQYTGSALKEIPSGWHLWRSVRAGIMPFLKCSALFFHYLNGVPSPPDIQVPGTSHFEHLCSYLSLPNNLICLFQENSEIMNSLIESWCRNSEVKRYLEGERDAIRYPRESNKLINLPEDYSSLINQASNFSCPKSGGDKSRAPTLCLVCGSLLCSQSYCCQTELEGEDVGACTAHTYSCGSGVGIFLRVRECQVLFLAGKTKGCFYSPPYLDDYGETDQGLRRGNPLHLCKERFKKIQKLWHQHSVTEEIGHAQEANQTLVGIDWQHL
UniProt Q3KQV9: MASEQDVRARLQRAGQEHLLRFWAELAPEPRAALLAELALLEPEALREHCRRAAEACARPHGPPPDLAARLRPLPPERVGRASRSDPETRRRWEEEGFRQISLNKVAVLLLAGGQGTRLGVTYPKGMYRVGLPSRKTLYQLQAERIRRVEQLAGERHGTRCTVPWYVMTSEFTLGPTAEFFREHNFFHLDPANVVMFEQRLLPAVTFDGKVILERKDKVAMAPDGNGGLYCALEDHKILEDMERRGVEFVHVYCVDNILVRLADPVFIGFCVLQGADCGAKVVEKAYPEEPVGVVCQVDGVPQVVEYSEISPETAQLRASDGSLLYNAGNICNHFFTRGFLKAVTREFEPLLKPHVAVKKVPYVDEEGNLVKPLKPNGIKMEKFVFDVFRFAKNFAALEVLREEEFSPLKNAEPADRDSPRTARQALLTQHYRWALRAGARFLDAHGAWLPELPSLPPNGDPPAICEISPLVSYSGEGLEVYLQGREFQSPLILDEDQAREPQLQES
UniProt Q9Y5K5, whole entry, looked up: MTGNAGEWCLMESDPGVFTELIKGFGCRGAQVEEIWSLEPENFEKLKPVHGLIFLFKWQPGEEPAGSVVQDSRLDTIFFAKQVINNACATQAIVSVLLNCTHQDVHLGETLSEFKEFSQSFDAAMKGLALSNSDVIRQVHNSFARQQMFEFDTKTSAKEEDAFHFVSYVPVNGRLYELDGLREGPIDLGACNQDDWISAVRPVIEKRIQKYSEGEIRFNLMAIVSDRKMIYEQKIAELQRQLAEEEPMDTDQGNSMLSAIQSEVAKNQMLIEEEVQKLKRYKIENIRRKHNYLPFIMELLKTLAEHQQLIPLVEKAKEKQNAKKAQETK
UniProt Q9BTX7: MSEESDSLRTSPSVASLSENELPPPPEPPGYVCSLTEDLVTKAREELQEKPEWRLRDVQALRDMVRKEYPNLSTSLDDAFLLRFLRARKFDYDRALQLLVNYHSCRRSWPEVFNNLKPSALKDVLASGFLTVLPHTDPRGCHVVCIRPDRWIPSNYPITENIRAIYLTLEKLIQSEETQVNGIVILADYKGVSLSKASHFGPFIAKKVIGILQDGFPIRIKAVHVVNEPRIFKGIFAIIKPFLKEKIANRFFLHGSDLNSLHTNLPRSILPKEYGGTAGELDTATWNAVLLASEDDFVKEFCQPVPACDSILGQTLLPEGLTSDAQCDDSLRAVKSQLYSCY
UniProt Q15819: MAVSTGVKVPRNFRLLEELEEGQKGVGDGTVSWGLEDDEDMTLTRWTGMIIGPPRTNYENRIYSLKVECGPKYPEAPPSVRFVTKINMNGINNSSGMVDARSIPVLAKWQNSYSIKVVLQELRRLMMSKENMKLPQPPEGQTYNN
UniProt Q04323: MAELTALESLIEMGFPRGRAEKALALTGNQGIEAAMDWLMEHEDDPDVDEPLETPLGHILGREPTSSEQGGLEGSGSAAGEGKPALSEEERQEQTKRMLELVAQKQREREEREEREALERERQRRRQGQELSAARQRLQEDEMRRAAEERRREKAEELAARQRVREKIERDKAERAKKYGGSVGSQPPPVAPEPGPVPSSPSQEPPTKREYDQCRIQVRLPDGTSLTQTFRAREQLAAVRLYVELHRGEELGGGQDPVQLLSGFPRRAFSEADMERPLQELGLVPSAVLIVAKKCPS
UniProt P51668: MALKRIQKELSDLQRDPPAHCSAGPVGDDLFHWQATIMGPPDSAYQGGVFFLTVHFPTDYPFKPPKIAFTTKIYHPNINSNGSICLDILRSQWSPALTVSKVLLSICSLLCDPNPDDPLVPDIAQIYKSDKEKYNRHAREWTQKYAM
UniProt Q01081: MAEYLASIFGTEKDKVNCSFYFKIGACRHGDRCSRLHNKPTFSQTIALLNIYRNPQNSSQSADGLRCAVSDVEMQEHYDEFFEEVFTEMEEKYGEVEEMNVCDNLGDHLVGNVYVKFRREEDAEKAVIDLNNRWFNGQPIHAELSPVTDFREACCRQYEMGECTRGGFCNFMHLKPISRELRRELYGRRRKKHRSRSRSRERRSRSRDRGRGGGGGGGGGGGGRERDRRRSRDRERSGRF

compound: CCN(CCCOc1ccc2c(Nc3cc(CC(=O)Nc4cccc(F)c4)[nH]n3)ncnc2c1)CCOP(=O)(O)O [barasertib]; experiment: log2 fold change, soluble protein after heating vs DMSO (PISA); higher = thermal stabilisation; K562 lysate, 10 uM; active = over 0.2 and 3.5 SD of the protein, either way, in both replicates (recomputed)
Procedure, shortened: (§1)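 Following dounce homogenisation of K562 pellets in PBS pH 7.4 with 1 mM MgCl2, crude extract at 1 mg/mL protein was incubated for 30 min with 10 μM compound. Aliquots were then heated for 3 min over 48°C-58°C and pooled, NP-40 was added to 0.5% at 4°C, and soluble protein was recovered as the supernatant at 21,000xg for 90 min. Channel-sum-equalised TMTpro 16plex LC-MS/MS quantified this protein. Each value, from duplicates, is a log-two fold change in thermal stability relative to solvent controls.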

log2 fold change, inactive:
TXN2 (UniProt Q99757) 0.072
TWISTNB (UniProt Q3B726) -0.055
UBE2L3 isoform 3 (UniProt P68036) -0.033
UBE2R2 (UniProt Q712K3) 0.02
TXNL4A (UniProt P83876) -0.026
TXNRD1 (UniProt Q16881) -0.007
UBE2Q1 (UniProt Q7Z7E8) -0.005
TUBG1 (UniProt P23258) 0.008
UBE2E1 (UniProt P51965) -0.039
UCHL3 (UniProt P15374) 0.063
TUBB1 (UniProt Q9H4B7) 0.002
UBE2I (UniProt P63279) -0.006
TXLNA (UniProt P40222) -0.011
TTN isoform 12 (UniProt Q8WZ42) 0.008
UBR2 isoform 4 (UniProt Q8IWV8) 0.063
TUBGCP2 isoform 4 (UniProt Q9BSJ2) 0.027
TXNRD2 (UniProt Q9NNW7) -0.047
UAP1L1 (UniProt Q3KQV9) 0.024
TUT4 (UniProt Q5TAX3) 0.024
UCHL5 isoform 3 (UniProt Q9Y5K5) -0.001
TTPAL (UniProt Q9BTX7) 0.027
UBE2B (UniProt P63146) 0.075
UBE4B isoform 4 (UniProt O95155) 0.029
TUBGCP3 (UniProt Q96CW5) -0.078
TUBB (UniProt P07437) -0.051
UBE2V2 (UniProt Q15819) 0.027
UBXN1 (UniProt Q04323) -0.04
UBFD1 (UniProt O14562) -0.007
UBE2D1 (UniProt P51668) 0.014
UBQLN2 (UniProt Q9UHD9) 0.315
TUFM (UniProt P49411) 0.044
U2AF1 isoform 2 (UniProt Q01081) -0.085
TUBB3 (UniProt Q13509) -0.042
UBE2E3 (UniProt Q969T4) 0.019
UBC (UniProt P0CG48) -0.013

compound: CC[C@@H]1C(=O)N(C)c2cnc(Nc3ccc(C(=O)NC4CCN(C)CC4)cc3OC)nc2N1C1CCCC1; experiment: as above
Procedure, shortened: as §1

log2 fold change, inactive:
TXN2 (UniProt Q99757) 0.046
TWISTNB (UniProt Q3B726) 0.023
UBE2L3 isoform 3 (UniProt P68036) 0.02
UBE2R2 (UniProt Q712K3) 0.036
TXNL4A (UniProt P83876) 0.028
TXNRD1 (UniProt Q16881) -0.052
UBE2Q1 (UniProt Q7Z7E8) -0.004
TUBG1 (UniProt P23258) -0.013
UBE2E1 (UniProt P51965) -0.064
UCHL3 (UniProt P15374) -0.063
TUBB1 (UniProt Q9H4B7) -0.025
UBE2I (UniProt P63279) 0.047
TXLNA (UniProt P40222) 0.026
TTN isoform 12 (UniProt Q8WZ42) 0.093
UBR2 isoform 4 (UniProt Q8IWV8) -0.059
TUBGCP2 isoform 4 (UniProt Q9BSJ2) 0.001
TXNRD2 (UniProt Q9NNW7) 0.023
UAP1L1 (UniProt Q3KQV9) -0.029
TUT4 (UniProt Q5TAX3) -0.021
UCHL5 isoform 3 (UniProt Q9Y5K5) -0.019
TTPAL (UniProt Q9BTX7) 0.059
UBE2B (UniProt P63146) -0.103
UBE4B isoform 4 (UniProt O95155) 0.026
TUBGCP3 (UniProt Q96CW5) 0.001
TUBB (UniProt P07437) -0.02
UBE2V2 (UniProt Q15819) 0.025
UBXN1 (UniProt Q04323) 0.024
UBFD1 (UniProt O14562) 0.055
UBE2D1 (UniProt P51668) 0.012
UBQLN2 (UniProt Q9UHD9) 0.006
TUFM (UniProt P49411) -0.081
U2AF1 isoform 2 (UniProt Q01081) -0.06
TUBB3 (UniProt Q13509) -0.019
UBE2E3 (UniProt Q969T4) 0.02
UBC (UniProt P0CG48) 0.034
